Test results published in PubChem BioAssay AID1917 (Vanderbilt High Throughput Screening Facility, 2009).
In all, about 3,000 compounds went through this assay and about 1,600 (53%) were called active. The set was probably picked from earlier hits. Inconclusive means that the source gave no clear call. Such entries were picked first, then a sample of the others.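 The calls were made as follows: active = Flux at 10 µM at least 3 SD below or above vehicle control mean in one or both replicates; inconclusive = no clear call, values can overlap the other calls; inactive = the rest.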

The chains behind the UniProt entries cited, without tags or fusion partners. Where a name states a change or a piece, a line headed by the entry shows the natural chain unless it says otherwise.
UniProt P48048: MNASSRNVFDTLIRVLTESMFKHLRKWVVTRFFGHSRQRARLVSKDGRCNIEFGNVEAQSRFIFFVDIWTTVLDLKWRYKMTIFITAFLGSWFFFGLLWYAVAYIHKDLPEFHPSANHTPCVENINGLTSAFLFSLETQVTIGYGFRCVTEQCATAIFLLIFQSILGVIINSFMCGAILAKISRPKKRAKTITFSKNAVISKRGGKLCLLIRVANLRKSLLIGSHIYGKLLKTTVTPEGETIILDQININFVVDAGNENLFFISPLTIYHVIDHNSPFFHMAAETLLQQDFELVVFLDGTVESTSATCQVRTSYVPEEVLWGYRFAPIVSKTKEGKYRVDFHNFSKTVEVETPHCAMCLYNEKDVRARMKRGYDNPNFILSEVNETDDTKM

biological target: ATP-sensitive inward rectifier potassium channel 1 (Homo sapiens) (UniProt P48048); test: retested modulators of human Kir1.1 channel – cell-based, thallium flux, duplicate, resupplied hits, confirmation (AID 1917); conditions: ROMK thallium flux, fluorescence ratio; at 10 µM; hits give low values

SMILES	normalized thallium flux (F/F0 slope)
COc1ccc(OCC(O)Cn2c(=N)n(Cc3ccccc3)c3ccccc32)cc1 (stereo not drawn)	active: 0.0481
c1ccc(CCNc2nc(-c3ccccn3)nc3ccccc23)cc1	inconclusive: 0.0716
COCCOC(=O)c1c(NC(=O)CN2c3ccccc3CC2C)sc(C(N)=O)c1C (stereo not drawn)	inconclusive: 0.0693
O=[N+]([O-])c1ccc(-c2ccc(/C=N/Nc3nc(NCc4ccccc4)nc(N4CCOCC4)n3)o2)cc1	active: 0.0635
O=C(Nc1cccc(Cl)c1)N1CCN(C/C=C/c2ccccc2)CC1	inconclusive: 0.0667
C=CCCC(=O)Nc1ccc(Br)cn1	inactive: 0.0761
COc1cccc(/C=C(/C#N)c2ccc(Cl)cc2)c1OCc1cccc(C(=O)O)c1	inactive: 0.0784
COc1ccc(CN(C(=O)c2cccs2)c2nccs2)cc1OC	inconclusive: 0.0703
COc1ccccc1OCC(O)Cn1c(=N)n(Cc2ccccc2)c2ccccc21 (stereo not drawn)	active: 0.0479
O=C(NC1CCCCCCC1)C1c2ccccc2C(=O)N1Cc1ccco1 (stereo not drawn)	inconclusive: 0.0722
CCOC(=O)c1cc2ccccc2n1CCN(CC)CC	inconclusive: 0.0726
Cc1ccc2cc(CN(Cc3ccc4c(c3)OCO4)Cc3nnnn3Cc3ccco3)c(=O)[nH]c2c1C	inconclusive: 0.0691
Cc1cc(N=Cc2cc(Br)ccc2O)no1	inconclusive: 0.0969
Cc1ccc(Nc2nnns2)cc1C	inconclusive: 0.0673
O=C(NCc1n[nH]c(=S)n1-c1ccc(F)cc1)c1ccc(S(=O)(=O)N2CCCC2)cc1	inactive: 0.0857
CCOCc1nnc(NC(=O)c2c(OC)cccc2OC)s1	inconclusive: 0.0676
Cc1ccc(C2CC(c3cccs3)=NN2C(=O)c2ccco2)o1 (stereo not drawn)	inconclusive: 0.0675
Oc1ccccc1N=Cc1c(O)ccc2ccccc12	active: 0.0451
CN(Cc1ccc(Cl)cc1)C(=O)CCl	inconclusive: 0.0692
Cc1sc2ncn3c(C)nnc3c2c1C	inactive: 0.081
O=C(O)CSCc1nc2ccccc2s1	inconclusive: 0.0698
O=C(O)C1CCCCC1C(=O)NCCc1ccncc1 (stereo not drawn)	inactive: 0.0725

SMILES	normalized thallium flux (F/F0 slope)
COC(=O)c1cc(C(=O)N2CCN(c3cccc(C)c3C)CC2)cc([N+](=O)[O-])c1	inconclusive: 0.0933
COc1ccccc1S(=O)(=O)Cc1ccc(C(=O)NC2CCCCC2)o1	inactive: 0.083
CC(=O)Nc1ccc(S(=O)(=O)NCCC(=O)NCCc2ccc(F)cc2)cc1	inactive: 0.0811
COCCNC(=O)/C(C#N)=C/c1ccc(OC(=O)c2cccs2)c(OC)c1	active: 0.044
CC(C)(C)NC(=O)CN(C(=O)CSc1nnc(COc2ccccc2)o1)c1cccc(F)c1	inconclusive: 0.0693
O=C(CSc1ccc2ccccc2n1)NCc1ccc2c(c1)OCO2	inconclusive: 0.0693
O=C(Nc1ccc(Cl)cc1)OCc1cn(-c2ccccc2)nn1	inconclusive: 0.0693
N#CC1=C(N)Oc2c(ccc3cccnc23)C1c1cccnc1 (stereo not drawn)	inconclusive: 0.0932
Cc1ccc(N=C2NC(=O)/C(=C/c3cn(C)c4ccccc34)S2)cc1C	inconclusive: 0.065
Cc1cc2c3c(c1)C(C)CC(C)(C)N3C(=O)C2=O (stereo not drawn)	inconclusive: 0.0954
Cc1cc(C(=O)CN2C(=O)NC(C)(c3cccc(Br)c3)C2=O)c(C)n1Cc1ccco1 (stereo not drawn)	inconclusive: 0.0716
C/C(=C\c1ccccc1)C(=O)Nc1nccs1	inconclusive: 0.0707
CCCN(CCC)S(=O)(=O)c1ccc(Cl)c(OC)c1	inconclusive: 0.069
CCC1CCCCN1S(=O)(=O)c1ccc(S(=O)(=O)N(Cc2cccs2)C2CC2)cc1 (stereo not drawn)	inconclusive: 0.0668
CC1(C)Cc2c(C#N)c(SCCOc3ccccc3)nc(N3CCOCC3)c2CO1	inconclusive: 0.0697
Cn1c(Cc2ccccc2)nnc1SCc1nc2ccccc2c(=O)[nH]1	inactive: 0.0859
CC/C(=N/Nc1cccc(C)c1)c1cnnc(SC)n1	inconclusive: 0.0644
COCCNC(=O)Cn1cc(S(=O)(=O)N2CCN(c3ccccc3F)CC2)c2ccccc2c1=O	inactive: 0.075
Cc1ccccc1OCC(O)Cn1c(=N)n(Cc2ccccc2)c2ccccc21 (stereo not drawn)	active: 0.0497
Cc1ccc(NC(=O)c2nc(C)n(-c3ccc([N+](=O)[O-])cc3)n2)cc1	inconclusive: 0.0684
O=C(/C=C/c1ccc([N+](=O)[O-])cc1)N(c1ccccn1)C1CCCCC1	inactive: 0.0755
COc1ccc(Br)cc1C(=O)Nc1cccc(C)c1C	inactive: 0.0855

SMILES	normalized thallium flux (F/F0 slope)
COc1ccccc1-n1c(SCC(=O)N2CCc3ccccc32)nc2c(c1=O)SCC2	active: 0.0576
COC(=O)c1ccc(OC(=O)c2ccc(OC)c(OC)c2)c(OC)c1	inactive: 0.0796
Cc1nc2cc(F)ccc2n1C1CCN(S(=O)(=O)c2ccccc2)CC1	inconclusive: 0.0675
Cc1ccc(C2C(C#N)=C(N)Oc3nc(-c4ccccc4)[nH]c32)o1 (stereo not drawn)	inconclusive: 0.0725
Clc1ccc(-c2nnc(CSc3nnc(-c4cccs4)n3Cc3ccccc3)o2)cc1	inactive: 0.0718
Cc1noc(C)c1COC(=O)c1ccc2c(c1)S(=O)(=O)c1ccccc1C2=O	inactive: 0.0777
O=C(O)c1ccc(N/N=C/C2=C(N3CCOCC3)C(=C\c3ccccc3)/CC2)cc1	active: 0.0451
CC12CC3(C)CC(C)(C1)CC(C(=O)NC(=S)NC(C)(C)C)(C2)C3	inconclusive: 0.0691
CC(OC(=O)c1ccncc1)C(=O)Nc1cc(S(=O)(=O)N2CCCCC2)ccc1Cl (stereo not drawn)	active: 0.0682
O=c1c([N+](=O)[O-])cc(C(F)(F)F)cn1Cc1c(Cl)cccc1Cl	inactive: 0.0729
COCCCn1c(C)nc2c(c1=O)c1nc3ccccc3nc1n2CCc1ccccc1	active: 0.0498
Cc1ccc(-c2csc(NC(=O)Cc3ccc(F)cc3)n2)o1	inactive: 0.0729
Cc1ccc(CSC(Nc2ccc(F)cc2)=C(C#N)C#N)cc1	inactive: 0.0751
Cc1cn2c(N)c(C=C3C=C(Cl)C(=O)C(Cl)=C3)c(=O)nc2s1	active: 0.025
COc1ccccc1OCCn1c(C(C)O)nc2ccccc21 (stereo not drawn)	active: 0.0657
CC(C)[C@@H]1CC[C@@H](C)C[C@H]1OC(=O)C[n+]1cc(-c2ccc(Cl)cc2)n2c1CCCCC2	active: 0.0352
O=C(Nc1ccc2snnc2c1)N1CCOCC1	inconclusive: 0.0703
CC(NC(=O)CC12CC3CC(CC(C3)C1)C2)C(=O)O (stereo not drawn)	inactive: 0.0909
COc1ccc(CNCC(O)COc2ccc(C)cc2[N+](=O)[O-])cc1 (stereo not drawn)	active: 0.0634
CCc1cccc(CC)c1NC(=O)CN1C2CCCC1CC(NC(=O)Nc1cccc(OC)c1)C2 (stereo not drawn)	inconclusive: 0.0698
O=C1N/C(=C/c2ccc(N3CCOCC3)o2)C(=O)N1c1ccccc1	active: 0.0486
CCOC(=O)C1CCN(c2ccc([N+](=O)[O-])c(C(C)=O)c2)CC1	inactive: 0.076

SMILES	normalized thallium flux (F/F0 slope)
CCOc1cc(/C=N/NC(=O)c2ccc(-c3csc(Nc4ccc(C)cc4)n3)cc2)ccc1OCC(=O)O	inconclusive: 0.0694
CC(C)CCNC(=O)C(CC(C)C)N(Cc1ccc2c(c1)OCO2)C(=O)c1snc(C(N)=O)c1N (stereo not drawn)	inconclusive: 0.0693
CC(C)OC(=O)C[N+](C)(C)CCN1C(=O)C2C(c3ccccc3)C=CC(c3ccccc3)C2C1=O (stereo not drawn)	inconclusive: 0.0698
O=C(O)Cc1csc(-c2ccc(F)cc2)n1	inconclusive: 0.0664
NC(=O)C1CCN(C(=O)c2ccc3c(=O)n(Cc4ccco4)c(SCC(=O)c4ccc(F)cc4)nc3c2)CC1	inactive: 0.0917
CC1CCC2C(=O)N(c3ccc(Cc4ccncc4)cc3)C(=O)C2C1 (stereo not drawn)	inconclusive: 0.0714
CCCCCCCCCCCC(=O)NC(Cc1ccc(OC)c([N+](=O)[O-])c1)C(=O)O (stereo not drawn)	inconclusive: 0.096
O=C(Nc1cccnc1)c1ccc(Cl)c(S(=O)(=O)N2CCCCCC2)c1	inconclusive: 0.0685
O=C(CSc1nnnn1C1CC2CCC1C2)Nc1ccnc2ccccc12 (stereo not drawn)	inconclusive: 0.0674
O=C(O)c1cc2c(s1)-c1ccccc1OC2	inconclusive: 0.0917
CCOC(=O)C1=C(O)/C(=C/c2ccc(OCC(=O)O)c(OC)c2)SC1=Nc1ccc(OC)cc1	inactive: 0.0809
Cc1ccc(S(=O)(=O)NC(CC(=O)NCc2ccco2)c2ccco2)cc1 (stereo not drawn)	inconclusive: 0.07
CCOC(=O)N1CCC(n2c(SCC(=O)NCCC3=CCCCC3)nc3ccccc3c2=O)CC1	inconclusive: 0.0661
Cc1ccc(S(=O)(=O)NC2=NCN(C3CCCCC3)CN2)cc1	inconclusive: 0.0696
CCOC(=O)C(C)Sc1nnc(Cn2c(=O)sc3ccccc32)n1-c1ccccc1 (stereo not drawn)	inconclusive: 0.097
Cc1oc2c(c1C(=O)c1ccccc1)C(=O)C(=O)c1ccccc1-2	inconclusive: 0.063
Oc1c(Br)cc(Br)cc1C=NCc1ccccc1	inconclusive: 0.106
Cc1cccn2c(=O)c3cc(C(=O)NC4CCCC4)c(=N)n(C4CCCC4)c3nc12	inconclusive: 0.0667
CC(=O)OCC(OC(C)=O)C(OC(C)=O)C(OC(C)=O)C(=O)Nc1ccc(C)cc1 (stereo not drawn)	inactive: 0.0873
C=CCNc1nc(-c2ccc(O)c(C(N)=O)c2)cs1	inactive: 0.0822
Cc1nc2ccc(NC(=O)c3ccc(S(=O)(=O)N4CCOCC4)cc3)cc2s1	inactive: 0.0774
CCN1C=C(Cc2ccc(OC)cc2)C2=C(C1)C(c1ccc(OC)cc1)C(C#N)=C(N)O2 (stereo not drawn)	inconclusive: 0.0722
